Source: paper PMC3480639

Legend:
[1] = target: T1, GFP:Laci-Repo-Man^WT (human) (UniProt Q69YH5); assay: LacI-LacO tethering, recruitment seen by fluorescence microscopy; GFP:Laci fusion tethered to a LacO array at a single locus in DT40 cells, endogenous Importin β stained with an antibody; prometaphase/metaphase cells
T1 sequence: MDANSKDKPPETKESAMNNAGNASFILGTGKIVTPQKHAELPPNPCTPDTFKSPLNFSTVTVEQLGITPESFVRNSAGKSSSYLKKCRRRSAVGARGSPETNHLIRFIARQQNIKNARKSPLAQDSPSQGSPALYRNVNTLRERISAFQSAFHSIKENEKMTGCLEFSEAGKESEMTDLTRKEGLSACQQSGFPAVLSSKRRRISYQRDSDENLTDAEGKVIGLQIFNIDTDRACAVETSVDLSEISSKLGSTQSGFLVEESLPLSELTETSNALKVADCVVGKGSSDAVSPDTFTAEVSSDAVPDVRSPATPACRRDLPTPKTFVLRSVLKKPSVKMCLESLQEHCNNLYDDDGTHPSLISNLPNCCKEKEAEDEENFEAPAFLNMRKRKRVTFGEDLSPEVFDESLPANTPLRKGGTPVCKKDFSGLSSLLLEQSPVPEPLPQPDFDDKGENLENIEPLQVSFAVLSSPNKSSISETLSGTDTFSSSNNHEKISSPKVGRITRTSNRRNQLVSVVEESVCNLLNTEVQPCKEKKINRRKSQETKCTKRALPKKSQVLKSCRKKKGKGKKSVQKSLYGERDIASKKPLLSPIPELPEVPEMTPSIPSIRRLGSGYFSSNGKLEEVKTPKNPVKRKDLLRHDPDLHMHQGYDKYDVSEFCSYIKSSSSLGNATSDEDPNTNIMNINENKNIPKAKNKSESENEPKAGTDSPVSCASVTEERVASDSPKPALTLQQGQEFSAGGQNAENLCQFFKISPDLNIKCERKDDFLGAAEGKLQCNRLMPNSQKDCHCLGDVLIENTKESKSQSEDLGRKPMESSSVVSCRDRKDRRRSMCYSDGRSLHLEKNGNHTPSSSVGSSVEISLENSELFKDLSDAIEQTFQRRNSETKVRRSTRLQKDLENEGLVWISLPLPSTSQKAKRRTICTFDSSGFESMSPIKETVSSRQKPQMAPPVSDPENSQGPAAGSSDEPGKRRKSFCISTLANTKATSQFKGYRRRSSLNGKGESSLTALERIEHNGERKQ

[2] = target: T2, GFP:Laci-Repo-Man^1–135 (human) (UniProt Q69YH5); assay: as above
T2 sequence: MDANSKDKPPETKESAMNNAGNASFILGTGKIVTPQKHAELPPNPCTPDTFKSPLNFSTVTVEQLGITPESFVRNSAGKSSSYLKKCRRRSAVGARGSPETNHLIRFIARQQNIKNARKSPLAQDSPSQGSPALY

[3] = target: T1, GFP:Laci-Repo-Man^WT (human); assay: LacI-LacO tethering, recruitment seen by fluorescence microscopy; GFP:Laci fusion tethered to a LacO array at a single locus in DT40 cells, endogenous Importin β stained with an antibody; anaphase/telophase cells
[4] = target: T2, GFP:Laci-Repo-Man^1–135 (human); assay: as above

binding [3]: binds
binding [4]: binds
Substance: Importin β (endogenous, DT40) (chicken (endogenous in DT40))
binding [1]: no binding (only in prometaphase/metaphase cells)
binding [2]: no binding (only in prometaphase/metaphase cells)

These are yes or no findings as the source states them, for the method shown. For some of these results: Binding calls can cover weak binding; strength is not graded here. Tags and fused reporters may be left off the sequences shown.
